# Results deposited as PubChem BioAssay AID1224826 (NIAID, 2016)
# Purpose: 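Regulators of Tlr4 signalling leading to Tnf-alpha expression in macrophages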 (primary screen)
# Cells: RAW264.7 G9 macrophages from mouse bearing reporters for p65 (GFP) and the Tnf promoter (mCherry)
# Knock-down reagent: siRNA pool against mouse genes, 100 nM
# Duration: 16 h of LPS stimulation, after 2 days of siRNA transfection
# Treatment: bacterial lipopolysaccharide (Salmonella minnesota R595), 10 ng/ml
# Measured: 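Nuclear mCherry signal of the Tnf promoter reporter measured by imaging after background removal, scaled to each plate median and turned into robust z-scores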
# Reading the numbers: Tnf reporter robust z-score: higher = stronger Tnf promoter reporter signal after LPS
# Rule for the call: 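Called active when robust z-score is at most -1.3, matching the median of the Tlr4 knock-down control, or over 3; control wells and wells with under 50 cells never active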
# Meaning of the calls: active = Tnf reporter clearly lowered or raised; inactive = no clear change in Tnf reporter
# The whole screen tested about 17,000 reagents; this is a random part of them. In the full data, about 1,110 (6.6%) are marked active. 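Active means lowered or raised reporter signal; replicate intensities are raw and not normalised per plate.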 Not all columns of the deposit are shown. Reagent sequences are not shown.
The first 3 records as a preview:
Gene,Tnf reporter robust z-score,fewer than 50 cells in well,Call
"Gnptg (N-acetylglucosamine-1-phosphotransferase, gamma subunit)",-1.22,enough cells in well,inactive
Pmp22 (peripheral myelin protein 22),-0.36,enough cells in well,inactive
Ndufa9 (NADH:ubiquinone oxidoreductase subunit A9),-1.51,enough cells in well,active

The list itself, repeating the preview:
Gene,Tnf reporter robust z-score,fewer than 50 cells in well,Call
"Gnptg (N-acetylglucosamine-1-phosphotransferase, gamma subunit)",-1.22,enough cells in well,inactive
Pmp22 (peripheral myelin protein 22),-0.36,enough cells in well,inactive
Ndufa9 (NADH:ubiquinone oxidoreductase subunit A9),-1.51,enough cells in well,active
Myct1 (myc target 1),-0.93,enough cells in well,inactive
Cab39 (calcium binding protein 39),-0.56,enough cells in well,inactive
Gca (grancalcin),-0.81,enough cells in well,inactive
Mto1 (mitochondrial tRNA translation optimization 1),0.38,enough cells in well,inactive
Or6c209 (olfactory receptor family 6 subfamily C member 209),,fewer than 50 cells per well; well left out of calls,inactive
Arl1 (ADP-ribosylation factor-like 1),0.9,enough cells in well,inactive
Hectd3 (HECT domain E3 ubiquitin protein ligase 3),-0.53,enough cells in well,inactive
Gtsf1l (gametocyte specific factor 1-like),0.47,enough cells in well,inactive
Mmp9 (matrix metallopeptidase 9),1.49,enough cells in well,inactive
Mrps11 (mitochondrial ribosomal protein S11),-1.04,enough cells in well,inactive
Smad5 (SMAD family member 5),0.39,enough cells in well,inactive
"Rnls (renalase, FAD-dependent amine oxidase)",0.69,enough cells in well,inactive
Cd24a (CD24a antigen),-0.86,enough cells in well,inactive
Mff (mitochondrial fission factor),,fewer than 50 cells per well; well left out of calls,inactive
Stpg2 (sperm tail PG rich repeat containing 2),-0.31,enough cells in well,inactive
Cpe (carboxypeptidase E),-0.95,enough cells in well,inactive
Vash2 (vasohibin 2),2.05,enough cells in well,inactive
Arid4b (AT-rich interaction domain 4B),-0.33,enough cells in well,inactive
Acsm3 (acyl-CoA synthetase medium-chain family member 3),-0.2,enough cells in well,inactive
"Prkaca (protein kinase, cAMP dependent, catalytic, alpha)",-0.44,enough cells in well,inactive
Ubxn11 (UBX domain protein 11),,fewer than 50 cells per well; well left out of calls,inactive
